These are yes or no findings as the source states them, for the method shown. Binding seen in cells or lysates may run through a third protein. A yes stands for co-enrichment or nearness to the bait. Other partners may have been found.
Columns and labels:
Assay in all cases: proximity labelling
[1] = biological target: Flag-BirA*-TopBP1 WT (human) (UniProt Q92547)
[2] = biological target: opto-TopBP1 S1138D (TurboID-TopBP1 S1138D-mCherry-Cry2) (human) (UniProt Q92547)
[3] = biological target: opto-TopBP1 WT (TurboID-TopBP1-mCherry-Cry2) (human) (UniProt Q92547)

By UniProt entry, the sequences of proteins in these tests, tags left out. Where a name states a change or a piece, a line headed by the entry shows the natural chain unless it says otherwise.
UniProt Q92547: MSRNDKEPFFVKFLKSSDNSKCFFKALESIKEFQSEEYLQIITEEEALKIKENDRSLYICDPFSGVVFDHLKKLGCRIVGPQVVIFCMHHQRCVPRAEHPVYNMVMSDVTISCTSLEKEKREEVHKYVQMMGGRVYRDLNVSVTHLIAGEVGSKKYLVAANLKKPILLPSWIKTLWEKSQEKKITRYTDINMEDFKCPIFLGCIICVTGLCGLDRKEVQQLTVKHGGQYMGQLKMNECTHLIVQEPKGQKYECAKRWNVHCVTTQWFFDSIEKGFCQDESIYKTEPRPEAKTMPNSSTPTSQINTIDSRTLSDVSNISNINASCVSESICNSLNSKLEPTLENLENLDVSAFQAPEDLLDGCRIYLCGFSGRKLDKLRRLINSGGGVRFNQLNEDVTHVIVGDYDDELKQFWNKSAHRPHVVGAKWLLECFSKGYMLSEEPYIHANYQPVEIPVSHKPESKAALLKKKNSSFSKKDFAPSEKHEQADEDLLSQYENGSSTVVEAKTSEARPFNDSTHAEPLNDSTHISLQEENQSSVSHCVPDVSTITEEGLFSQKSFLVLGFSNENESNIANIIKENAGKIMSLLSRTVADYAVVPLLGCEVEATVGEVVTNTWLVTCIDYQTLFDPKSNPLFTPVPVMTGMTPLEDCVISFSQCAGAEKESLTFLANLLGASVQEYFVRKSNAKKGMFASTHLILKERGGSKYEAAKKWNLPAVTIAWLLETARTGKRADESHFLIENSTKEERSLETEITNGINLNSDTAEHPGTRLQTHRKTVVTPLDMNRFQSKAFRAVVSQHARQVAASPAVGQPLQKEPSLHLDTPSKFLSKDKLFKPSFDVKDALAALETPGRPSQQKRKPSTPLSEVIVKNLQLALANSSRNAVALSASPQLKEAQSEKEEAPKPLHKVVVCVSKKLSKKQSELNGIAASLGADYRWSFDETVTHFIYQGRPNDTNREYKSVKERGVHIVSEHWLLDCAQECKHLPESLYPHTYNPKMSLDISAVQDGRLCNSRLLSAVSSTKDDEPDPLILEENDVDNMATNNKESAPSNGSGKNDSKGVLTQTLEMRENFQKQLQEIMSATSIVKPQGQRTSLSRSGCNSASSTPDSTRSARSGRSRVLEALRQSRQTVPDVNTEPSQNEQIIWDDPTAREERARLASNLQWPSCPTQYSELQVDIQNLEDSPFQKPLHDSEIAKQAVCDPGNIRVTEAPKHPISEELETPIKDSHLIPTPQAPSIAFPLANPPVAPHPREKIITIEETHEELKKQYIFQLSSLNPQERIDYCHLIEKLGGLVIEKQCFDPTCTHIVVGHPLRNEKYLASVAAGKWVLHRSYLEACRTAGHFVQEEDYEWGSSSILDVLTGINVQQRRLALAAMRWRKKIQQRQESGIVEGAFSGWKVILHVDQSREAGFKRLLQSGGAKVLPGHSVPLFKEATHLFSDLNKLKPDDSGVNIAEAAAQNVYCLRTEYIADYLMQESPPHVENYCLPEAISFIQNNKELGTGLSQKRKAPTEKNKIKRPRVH
UniProt Q13535: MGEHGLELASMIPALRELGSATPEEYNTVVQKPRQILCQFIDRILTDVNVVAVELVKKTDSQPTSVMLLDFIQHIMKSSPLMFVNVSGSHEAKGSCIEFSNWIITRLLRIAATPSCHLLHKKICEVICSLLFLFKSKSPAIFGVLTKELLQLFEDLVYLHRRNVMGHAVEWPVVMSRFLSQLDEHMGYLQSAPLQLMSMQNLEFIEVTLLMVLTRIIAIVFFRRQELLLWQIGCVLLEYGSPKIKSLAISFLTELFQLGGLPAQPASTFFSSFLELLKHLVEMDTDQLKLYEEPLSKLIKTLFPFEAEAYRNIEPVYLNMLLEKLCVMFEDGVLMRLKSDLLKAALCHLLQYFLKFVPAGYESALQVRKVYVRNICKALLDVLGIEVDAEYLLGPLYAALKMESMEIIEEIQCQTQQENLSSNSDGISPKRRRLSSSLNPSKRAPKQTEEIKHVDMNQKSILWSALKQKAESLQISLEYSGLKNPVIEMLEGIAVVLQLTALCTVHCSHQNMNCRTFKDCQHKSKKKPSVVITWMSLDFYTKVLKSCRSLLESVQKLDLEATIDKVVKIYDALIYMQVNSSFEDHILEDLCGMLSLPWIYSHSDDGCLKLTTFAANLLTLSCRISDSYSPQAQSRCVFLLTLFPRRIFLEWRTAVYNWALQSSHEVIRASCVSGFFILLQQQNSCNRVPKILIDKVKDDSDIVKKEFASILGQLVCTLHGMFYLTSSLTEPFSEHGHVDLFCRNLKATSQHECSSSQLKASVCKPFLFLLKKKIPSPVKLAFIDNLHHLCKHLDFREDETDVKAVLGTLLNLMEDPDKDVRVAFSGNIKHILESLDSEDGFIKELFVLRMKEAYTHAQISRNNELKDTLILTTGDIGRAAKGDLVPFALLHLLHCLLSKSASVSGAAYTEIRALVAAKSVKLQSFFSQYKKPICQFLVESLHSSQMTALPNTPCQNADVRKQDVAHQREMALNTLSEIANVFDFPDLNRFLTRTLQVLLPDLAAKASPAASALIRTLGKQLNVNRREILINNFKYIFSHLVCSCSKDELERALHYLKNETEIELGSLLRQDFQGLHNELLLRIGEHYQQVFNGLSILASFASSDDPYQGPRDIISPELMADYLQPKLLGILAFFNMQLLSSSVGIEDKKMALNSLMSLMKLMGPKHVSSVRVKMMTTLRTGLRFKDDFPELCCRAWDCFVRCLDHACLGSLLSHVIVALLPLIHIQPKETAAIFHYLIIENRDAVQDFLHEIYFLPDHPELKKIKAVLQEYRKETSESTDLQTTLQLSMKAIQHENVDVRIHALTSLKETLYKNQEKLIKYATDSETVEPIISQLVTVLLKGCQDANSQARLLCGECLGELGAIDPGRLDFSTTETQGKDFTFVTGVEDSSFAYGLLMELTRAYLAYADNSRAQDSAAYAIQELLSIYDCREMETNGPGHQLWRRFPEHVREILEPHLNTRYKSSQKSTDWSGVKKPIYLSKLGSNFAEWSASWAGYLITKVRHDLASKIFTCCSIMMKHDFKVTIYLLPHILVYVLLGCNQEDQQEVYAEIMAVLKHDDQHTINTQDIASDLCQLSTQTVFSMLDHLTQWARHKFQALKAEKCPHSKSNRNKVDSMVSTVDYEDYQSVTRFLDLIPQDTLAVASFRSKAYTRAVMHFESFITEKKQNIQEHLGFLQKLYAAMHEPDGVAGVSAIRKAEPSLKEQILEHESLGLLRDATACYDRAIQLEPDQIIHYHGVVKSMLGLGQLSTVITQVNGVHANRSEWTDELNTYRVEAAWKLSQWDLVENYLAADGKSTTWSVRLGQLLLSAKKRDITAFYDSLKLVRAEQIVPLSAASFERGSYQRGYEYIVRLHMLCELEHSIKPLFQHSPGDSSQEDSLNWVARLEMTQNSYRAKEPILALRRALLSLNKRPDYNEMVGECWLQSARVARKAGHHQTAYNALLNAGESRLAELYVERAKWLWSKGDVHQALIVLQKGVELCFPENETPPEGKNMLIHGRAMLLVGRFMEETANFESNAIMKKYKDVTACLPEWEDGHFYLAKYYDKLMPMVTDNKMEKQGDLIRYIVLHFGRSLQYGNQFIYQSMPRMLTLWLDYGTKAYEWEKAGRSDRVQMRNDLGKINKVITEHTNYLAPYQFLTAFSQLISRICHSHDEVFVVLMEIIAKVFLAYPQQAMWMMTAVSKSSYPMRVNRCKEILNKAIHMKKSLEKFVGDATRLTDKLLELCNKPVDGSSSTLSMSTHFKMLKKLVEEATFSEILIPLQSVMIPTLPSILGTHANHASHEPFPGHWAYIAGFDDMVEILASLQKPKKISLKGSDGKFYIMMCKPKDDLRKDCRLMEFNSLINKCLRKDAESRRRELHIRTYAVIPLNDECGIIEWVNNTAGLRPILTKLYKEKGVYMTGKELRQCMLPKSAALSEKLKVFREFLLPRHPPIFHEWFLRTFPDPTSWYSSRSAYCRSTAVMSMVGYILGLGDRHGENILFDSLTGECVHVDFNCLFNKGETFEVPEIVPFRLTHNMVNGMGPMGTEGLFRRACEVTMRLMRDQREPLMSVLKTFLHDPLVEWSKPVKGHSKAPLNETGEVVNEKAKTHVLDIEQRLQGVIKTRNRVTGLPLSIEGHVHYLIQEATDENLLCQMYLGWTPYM
UniProt P54132: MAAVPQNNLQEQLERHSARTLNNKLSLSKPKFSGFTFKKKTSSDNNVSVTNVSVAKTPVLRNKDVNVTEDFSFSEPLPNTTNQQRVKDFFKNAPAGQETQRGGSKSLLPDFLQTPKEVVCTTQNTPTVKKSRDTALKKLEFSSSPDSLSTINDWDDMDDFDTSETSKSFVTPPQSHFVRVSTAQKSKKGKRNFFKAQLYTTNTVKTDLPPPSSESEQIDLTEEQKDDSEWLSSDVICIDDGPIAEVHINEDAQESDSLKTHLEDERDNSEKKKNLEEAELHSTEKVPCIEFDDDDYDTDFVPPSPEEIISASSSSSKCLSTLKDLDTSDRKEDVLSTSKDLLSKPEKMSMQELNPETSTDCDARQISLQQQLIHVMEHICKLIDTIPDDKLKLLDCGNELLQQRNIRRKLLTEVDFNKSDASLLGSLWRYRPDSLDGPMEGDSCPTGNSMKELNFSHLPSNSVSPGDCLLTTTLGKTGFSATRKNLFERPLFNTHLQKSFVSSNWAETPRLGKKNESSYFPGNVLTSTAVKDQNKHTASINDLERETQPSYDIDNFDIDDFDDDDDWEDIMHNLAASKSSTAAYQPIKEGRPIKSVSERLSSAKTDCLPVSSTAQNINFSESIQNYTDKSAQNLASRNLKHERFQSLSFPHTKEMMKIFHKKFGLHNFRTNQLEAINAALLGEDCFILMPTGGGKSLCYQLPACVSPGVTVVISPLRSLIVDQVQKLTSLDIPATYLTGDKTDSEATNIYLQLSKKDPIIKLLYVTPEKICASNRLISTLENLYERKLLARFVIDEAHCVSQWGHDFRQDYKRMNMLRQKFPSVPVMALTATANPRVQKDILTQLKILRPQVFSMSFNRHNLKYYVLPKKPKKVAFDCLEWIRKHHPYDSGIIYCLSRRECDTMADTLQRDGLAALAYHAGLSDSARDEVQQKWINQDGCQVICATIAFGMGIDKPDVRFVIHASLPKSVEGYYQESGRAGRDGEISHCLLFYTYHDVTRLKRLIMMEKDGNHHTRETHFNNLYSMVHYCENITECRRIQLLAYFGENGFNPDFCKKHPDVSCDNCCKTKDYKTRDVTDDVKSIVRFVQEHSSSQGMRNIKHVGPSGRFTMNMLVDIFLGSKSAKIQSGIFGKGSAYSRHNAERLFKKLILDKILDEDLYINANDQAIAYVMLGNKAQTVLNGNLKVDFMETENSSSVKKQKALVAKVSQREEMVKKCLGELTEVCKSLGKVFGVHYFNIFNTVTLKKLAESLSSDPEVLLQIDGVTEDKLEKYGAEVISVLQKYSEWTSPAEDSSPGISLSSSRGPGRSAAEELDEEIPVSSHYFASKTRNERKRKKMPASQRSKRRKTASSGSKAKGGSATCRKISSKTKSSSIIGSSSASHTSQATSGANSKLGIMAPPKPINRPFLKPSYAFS
UniProt O60934: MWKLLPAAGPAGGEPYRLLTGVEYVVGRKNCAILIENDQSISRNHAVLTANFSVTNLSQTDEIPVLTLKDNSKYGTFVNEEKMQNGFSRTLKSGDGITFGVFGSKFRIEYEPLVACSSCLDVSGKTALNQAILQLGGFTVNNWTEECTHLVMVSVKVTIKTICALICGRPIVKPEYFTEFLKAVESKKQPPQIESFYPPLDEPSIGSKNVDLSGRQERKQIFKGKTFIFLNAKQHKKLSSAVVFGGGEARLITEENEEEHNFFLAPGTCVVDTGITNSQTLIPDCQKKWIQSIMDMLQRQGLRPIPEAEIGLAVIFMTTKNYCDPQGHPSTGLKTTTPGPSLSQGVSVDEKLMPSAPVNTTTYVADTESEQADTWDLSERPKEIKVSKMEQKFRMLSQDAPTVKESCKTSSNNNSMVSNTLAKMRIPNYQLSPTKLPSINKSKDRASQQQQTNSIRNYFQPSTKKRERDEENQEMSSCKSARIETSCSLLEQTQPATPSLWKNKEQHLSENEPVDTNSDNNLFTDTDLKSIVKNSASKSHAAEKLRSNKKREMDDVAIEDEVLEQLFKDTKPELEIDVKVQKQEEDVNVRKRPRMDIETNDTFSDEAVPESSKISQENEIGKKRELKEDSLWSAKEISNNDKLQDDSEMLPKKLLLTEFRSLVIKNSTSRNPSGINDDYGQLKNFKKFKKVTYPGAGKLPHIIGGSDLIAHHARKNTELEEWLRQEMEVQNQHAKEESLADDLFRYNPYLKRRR

binding [1] | Substance | binding [2] | binding [3]
binds | ATR (from UniProt Q13535 1-2644) |  | 
binds | BLM (from UniProt P54132 1-1417) |  | 
 | phospho ATR (Thr1989) (from UniProt Q13535 1-2644) | binds | binds
binds | NBS1 (from UniProt O60934 1-754) |  | 

From doi:10.1101/2020.10.05.326181
